Data as given in PubChem BioAssay AID652243 (Drosophila RNAi Screening Center, 2013)
The deposit covers about 24,000 reagents; shown is an unselected part of those with a known target gene and a result. In the full data, 246 (1%) are marked active. 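Plates not normalised; calls are printed but the firefly/Renilla ratio behind them is not deposited; fold cut for lowering reported inconsistently.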 The raw values are shown without normalisation. The record does not give: the amount of reagent.

- Test: 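Fly regulators of androgen-dependent reporter output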 (primary screen)
- Cell system: Drosophila S2R+ cells
- Reagent: long dsRNA against Drosophila genes
- Timing: 72 h (48 h, then 24 h hormone)
- Conditions: synthetic androgen R1881 at 10 nM for 24 h
- Measured: 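Per-well raw luminescence of the androgen-driven firefly reporter and of the Renilla control, two replicates each, without normalisation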
- Direction: firefly reporter light: higher = more light from androgen-responsive reporter; Renilla control light: higher = more constitutive control signal (cell number, transfection)
- Hit rule: 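Across duplicate plates, a knock-down whose log firefly/Renilla ratio shifted a set fold down or up from the GFP/LacZ control mean was a hit; the downward cut appears as both 1.5 and 3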
- Meaning of the calls: active = hit: reporter lowered or raised; inactive = no hit

gene knocked down	dsRNA	firefly reporter light, replicate 1	firefly reporter light, replicate 2	Renilla control light, replicate 1	Renilla control light, replicate 2	call
mirr	DRSC11369	1.29e5	85785	1.25e6	7.84e5	inactive
mirr	DRSC25450	6.64e5	3.49e5	9.26e5	6.53e5	inactive
TTLL5	DRSC14181	1.01e5	82464	5.13e5	5.26e5	inactive
laza	DRSC11661	55859	61441	5.48e5	4.98e5	inactive
laza	DRSC23330	6.33e5	6.88e5	1.47e6	1.47e6	inactive
laza	DRSC29129	6.81e5	6.06e5	1.18e6	9.09e5	inactive
SmydA-3	DRSC02565	1.68e5	1.58e5	9.59e5	1.29e6	inactive
SmydA-3	DRSC02566	1.35e5	95132	1.26e6	9.43e5	inactive
SmydA-3	DRSC30095	8.70e5	8.34e5	1.04e6	8.81e5	inactive
CG17472	DRSC02622	1.48e5	1.52e5	1.47e6	1.70e6	inactive
CG3746	DRSC04412	2.84e5	3.60e5	2.10e6	2.00e6	inactive
CG3746	DRSC30050	1.21e6	1.06e6	1.54e6	1.68e6	inactive
Mst77F	DRSC11871	2.36e5	2.67e5	2.53e6	2.90e6	inactive
CtBP	DRSC16617	99729	51816	4.02e5	3.71e5	inactive
CtBP	DRSC23712	3.43e5	3.34e5	5.67e5	5.06e5	inactive
CG3335	DRSC10358	1.47e5	1.66e5	2.64e6	1.86e6	inactive
CG3335	DRSC29982	7.56e5	7.06e5	1.54e6	1.64e6	inactive
Cdc2rk	DRSC07590	1.99e5	2.06e5	1.23e6	1.50e6	inactive
Cdc2rk	DRSC29758	4.71e5	3.02e5	1.72e6	1.66e6	inactive
Cdc2rk	DRSC37021					inactive
CG6602	DRSC10673	46366	60443	7.81e5	6.78e5	inactive
cuff	DRSC06315	3.69e5	1.84e5	1.82e6	1.74e6	inactive
dap	DRSC07601	1.22e6	6.49e5	2.11e6	1.91e6	inactive
dap	DRSC36662					inactive
dap	DRSC36663					inactive
CG1998	DRSC19829	3.38e5	3.35e5	3.81e6	3.61e6	inactive
Rh4	DRSC11268	1.08e5	1.27e5	5.45e5	7.68e5	inactive
Rh4	DRSC27381	3.91e5	3.23e5	8.50e5	9.01e5	inactive
CG32834	DRSC21929	5.38e5	5.62e5	1.60e6	1.61e6	inactive
CG32834	DRSC28346	2.07e5	4.10e5	2.61e5	5.42e5	inactive
CG14332	DRSC14811	3.21e5	3.00e5	3.17e6	2.77e6	inactive
CG15594	DRSC12280	61445	94232	1.75e6	1.92e6	inactive
CR43361	DRSC17206	3.80e5	3.31e5	3.46e6	3.07e6	inactive
CR43361	DRSC23926	7.48e5	6.18e5	9.23e5	8.71e5	inactive
Abp1	DRSC09693	2.85e5	1.40e5	1.80e6	1.56e6	inactive
CG18262	DRSC18149	1.30e5	1.47e5	1.39e6	2.44e6	inactive
CG18262	DRSC24242	9.70e5	1.07e6	8.98e5	7.19e5	inactive
elm	DRSC12309	78184	98997	2.21e5	2.90e5	inactive
COX4	DRSC02091	9.59e5	8.25e5	1.57e6	1.51e6	inactive
COX4	DRSC23915	4.39e5	6.63e5	8.88e5	8.31e5	inactive
mmm	DRSC10208	1.16e5	1.32e5	8.54e5	1.35e6	inactive
Ipo9	DRSC16813	1.37e5	79725	1.81e6	1.71e6	inactive
CG8813	DRSC00706	8.01e5	5.59e5	2.22e6	1.79e6	inactive
CG4477	DRSC10425	2.42e5	2.80e5	3.01e6	2.14e6	inactive
CAH15	DRSC04534	1.64e5	2.51e5	1.26e6	1.45e6	inactive
CAH15	DRSC26087	3.74e5	3.12e5	6.47e5	6.45e5	inactive
trbl	DRSC11901	2.32e5	2.03e5	2.77e6	2.01e6	inactive
trbl	DRSC36800					inactive
trbl	DRSC36801					inactive
CG34446	DRSC24507	1.36e5	1.21e5	1.40e6	1.44e6	inactive
CG32984	DRSC21602	1.34e6	8.36e5	2.57e6	1.95e6	inactive
CG32984	DRSC29257	3.67e5	4.46e5	1.64e6	1.79e6	inactive
CG32984	DRSC39096	3.74e5	5.62e5	1.24e6	1.64e6	inactive
Prestin	DRSC10507	1.74e5	1.31e5	1.45e6	1.20e6	inactive
CSN3	DRSC11859	89890	96665	1.16e6	1.27e6	inactive
CSN3	DRSC25919	4.23e5	5.38e5	9.71e5	8.56e5	inactive
CG10600	DRSC02074	6.95e5	6.44e5	1.60e6	1.53e6	inactive
CNPYb	DRSC09845	26086	25971	3.44e5	3.13e5	inactive

Part of the list above, showing only “firefly reporter light, replicate 1”.
CG17472 [DRSC02622]	1.48e5
CG3746 [DRSC04412]	2.84e5
CG3746 [DRSC30050]	1.21e6
Mst77F [DRSC11871]	2.36e5
CtBP [DRSC16617]	99729
CtBP [DRSC23712]	3.43e5
CG3335 [DRSC10358]	1.47e5
CG3335 [DRSC29982]	7.56e5
Cdc2rk [DRSC07590]	1.99e5
Cdc2rk [DRSC29758]	4.71e5
